From the supplement of paper PMC4604168 (melanoma cell lines)
This is one part of the list. Many values rest on one well or one pass, so single values are uncertain.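 The apoptosis fraction was the count of cleaved-PARP antibody-stained nuclei relative to all DNA-stained nuclei, imaged in 1,536-well plates. Screening doses were set so most cells survived, and baseline and induced cleaved-PARP levels vary greatly across cell lines.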

What follows are compounds tested on CBRC016 (line from a melanoma biopsy) (assay: cleaved PARP positive nuclei fraction relative to DMSO control; melanoma cells; higher = more apoptosis). Details: library dose: low library concentration; 72 h.
With `CC(C)C[C@H](NC(=O)[C@H](Cc1ccccc1)NC(=O)c1cnccn1)B(O)O` [Bortezomib] + O=C(O)c1ccc(-c2c[nH]c3ncc(-c4ccccc4)cc23)cc1C1CCCC1 [GSK650394] (first compound 0.001 µM, partner dose 0.16 µM) the “cleaved PARP positive nuclei fraction” value was 951%. `C[C@@H](Oc1cc(-c2cnn(C3CCNCC3)c2)cnc1N)c1c(Cl)ccc(F)c1Cl` [Crizotinib] + C[C@@H]1CCN(C(=O)CC#N)C[C@@H]1N(C)c1ncnc2[nH]ccc12 [CP690550] (first compound 0.2 µM, partner dose 1 µM) was tested, and the “cleaved PARP positive nuclei fraction” value was 26.8%. With `CC(C)C[C@H](NC(=O)[C@H](Cc1ccccc1)NC(=O)c1cnccn1)B(O)O` [Bortezomib] + Cc1cc(N2CCOCC2)cc2[nH]c(-c3c(NC[C@@H](O)c4cccc(Cl)c4)cc[nH]c3=O)nc12 [BMS536924] (first compound 0.001 µM, partner dose 0.2 µM) the “cleaved PARP positive nuclei fraction” value was 653%. In the case of `Nc1ccn([C@@H]2O[C@H](CO)[C@@H](O)C2(F)F)c(=O)n1` [gemcitabine] + CC(C)(C)c1cnc(CSc2cnc(NC(=O)C3CCNCC3)s2)o1 [SNS-032] (first compound 0.0004 µM, partner dose 0.01 µM), the “cleaved PARP positive nuclei fraction” value is reported as 127%. `CCCS(=O)(=O)Nc1ccc(F)c(C(=O)c2c[nH]c3ncc(Cl)cc23)c1F` + C=CCn1c(=O)c2cnc(Nc3ccc(N4CCN(C)CC4)cc3)nc2n1-c1cccc(C(C)(C)O)n1 [MK1775] (first compound 0.08 µM, partner dose 0.02 µM) was tested, and the “cleaved PARP positive nuclei fraction” value was 308%. `Nc1ccn([C@@H]2O[C@H](CO)[C@@H](O)C2(F)F)c(=O)n1` [gemcitabine] + CC1(C)NC(=O)N(c2ccc([N+](=O)[O-])c(C(F)(F)F)c2)C1=O [nilutamide] (first compound 0.0004 µM, partner dose 1 µM) was tested, and the “cleaved PARP positive nuclei fraction” value was 198%. For `CC(C)C[C@H](NC(=O)[C@H](Cc1ccccc1)NC(=O)c1cnccn1)B(O)O` [Bortezomib] + Cc1ccc(NC(=O)c2cccc(N(C)C)c2)cc1NC(=O)c1ccc(O)cc1 [ZM336372] (first compound 0.001 µM, partner dose 2 µM), the “cleaved PARP positive nuclei fraction” value was 519%. In the case of `CCCS(=O)(=O)Nc1ccc(F)c(C(=O)c2c[nH]c3ncc(Cl)cc23)c1F` + CN(NC(=O)CC(=O)NN(C)C(=S)c1ccccc1)C(=S)c1ccccc1 [STA4783] (first compound 0.08 µM, partner dose 0.006 µM), the “cleaved PARP positive nuclei fraction” value is reported as 97.6%. For `O=C(O)[C@@H]1[O][Sb](=[O])([O][Sb]2(=[O])[O][C@H]([C@H](O)CO)[C@H](O)[C@H](C(=O)O)[O]2)[O][C@H]([C@H](O)CO)[C@@H]1O` (stereo partly specified) [stibogluconate] + C[C@@H]1CCN(C(=O)CC#N)C[C@@H]1N(C)c1ncnc2[nH]ccc12 [CP690550] (first compound 2 µM, partner dose 1 µM), the “cleaved PARP positive nuclei fraction” value was 95.9%. `C=C(c1ccc(C(=O)O)cc1)c1cc2c(cc1C)C(C)(C)CCC2(C)C` [Bexarotene] + Cc1ccc(NC(=O)c2cccc(N(C)C)c2)cc1NC(=O)c1ccc(O)cc1 [ZM336372] (first compound 2 µM, partner dose 2 µM) was tested, and the “cleaved PARP positive nuclei fraction” value was 131%. In the case of `Cc1cc(Nc2cc(N3CCN(C)CC3)nc(/C=C/c3ccccc3)n2)n[nH]1` + CO[C@@H]1[C@H](N(C)C(=O)c2ccccc2)C[C@H]2O[C@]1(C)n1c3ccccc3c3c4c(c5c6ccccc6n2c5c31)C(=O)NC4 [Midostaurin] (first compound 0.04 µM, partner dose 0.08 µM), the “cleaved PARP positive nuclei fraction” value is reported as 205%.
